From US20130059866A1, “NOVEL PIPERIDINO-DIHYDROTHIENOPYRIMIDINE SULFOXIDES AND THEIR USE FOR TREATING COPD AND ASTHMA” (BOEHRINGER INGELHEIM INTERNATIONAL GMBH, priority 2011, published 2013)
At least one structure is not confirmed: it was looked up by name or label, or the drawing left a doubt. Some entries repeat one wording, which the source may state once for all of them.

tested on: LPS-induced neutrophil influx into bronchoalveolar lavage fluid of male Wistar rats; assay: Inhibition of LPS-induced neutrophil influx into bronchoalveolar lavage fluid (LPS-induced lung inflammation model); assay type: in vivo, rat; conditions: pretreatment of rats, oral
Protocol: The anti-inflammatory activity of Examples 1 and 2 and of Prior art compounds A and D was assessed in an in vivo LPS-induced lung inflammation model in rats.
As a measure of the pharmacological potency of the above mentioned compounds the half-maximal effective dose (ED50) in regard to the inhibition of lipopolysaccharide-induced (LPS-induced) neutrophil influx into the bronchoalveolar lavage fluid (BALF) was determined by assessing the dose response relationship. Bacterial endotoxins (lipopolysaccharides [LPS]) are components of the outer bacterial cell membrane which play an important role in the pathogenesis of infections with gram-negative bacteria. It is known that inhalation of such aerosolized LPS induces a dose-dependent increase in neutrophils to lung tissues and airspaces in rats which may be detected by analyzing the amount of neutrophils in the bronchoalveolar lavage fluid (BALF). However, this dose-dependent increase of neutrophils in the BALF should be diminished in a dose-dependent way in the presence of an effective PDE4-inhibitor.
Male Wistar rats (HanWistar) from an approved local distributor were used for the experiments. The ordered weight of the animals was in the range of 200-250 g. Animals were fasted overnight before the experiment. A total number of 32 animals were used for each experiment. Eight animals (n=8) per dose were used for the treatment groups, two animals were used for the LPS-control (positive control) and two animals for the negative control.
The animals of the LPS-control and of the negative control groups received “vehicle only” (“vehicle only” corresponds to 10 ml/kg body weight 0.5% Natrosol solution). The other groups were treated with the different doses of either Example compound 1, Example compound 2, Prior art compound A or Prior art compound D respectively (see Table D).
The amount of compound for the highest concentration tested for each compound was suspended in 10 ml 0.5% Natrosol (Hydroxyethylcellulose) solution and then diluted to the respective concentrations as shown in Table D. The respective compound suspension or “vehicle only” (10 ml/kg body weight 0.5% Natrosol solution) was administered orally by gavage. The resulting doses of the individual compounds corresponded to Table D: […]
Determination of neutrophil content of the BALF was performed using an ADVIA 120 blood hemacytometer (Bayer Diagnostics). Neutrophil data were normalised (Positive Control (=LPS treatment alone)=100%, Negative Control (no LPS treatment, administration of “vehicle only”)=0%) and expressed as percent of LPS control. The ED50 was calculated using a nonlinear fit (with the Graph Pad Prism software and a sigmoidal dose response fit). […]

Row | SMILES | inhibition of the LPS-induced neutrophil influx into the BALF
1 | [O-][S+]1CCc2nc(N3CCC(c4ccc(Cl)cc4)CC3)nc(NC3(CO)CCC3)c21 (single isomer, unassigned) [Example 1] | led to an inhibition
2 | [O-][S+]1CCc2nc(N3CCC(c4ncc(Cl)cn4)CC3)nc(NC3(CO)CCC3)c21 (single isomer, unassigned) [Example 2] | led to an inhibition
3 | [O-][S+]1CCc2nc(N3CCC(c4ccc(Cl)cc4)CC3)nc(NC3(CO)CC3)c21 (stereo not shown) [Prior art compound A, reference compound] | led to an inhibition
4 | [O-][S+]1CCc2nc(N3CCC(c4cccc(Cl)c4)CC3)nc(NC3(CO)CC3)c21 (stereo not shown) [Prior art compound D, reference compound] | led to an inhibition
